Our source for the binding values is article PMC9581967, “Helical ultrastructure of the metalloprotease meprin α in complex with a small molecule inhibitor” (Nature Communications, 2022).

This assay has as its target native meprin α from mouse urine (mouse (endogenous in urine)) (UniProt P28825). The experiment in a line: SEC; analytical size-exclusion chromatography of mouse urine after cisplatin treatment.

These are yes or no findings as the source states them, for the method shown. Some binding calls cover weakened binding; strength is not graded here.

B1: native meprin α from mouse urine (enzyme, UniProt P28825 65-713)
chain: NAMRDPSSRWKLPIPYILADNLELNAKGAILHAFEMFRLKSCVDFKPYEGESSYIIFQKLSGCWSMIGDQQVGQNISIGEGCDFKATIEHEILHALGFFHEQSRTDRDDYVNIWWDQIITDYEHNFNTYDDNTITDLNTPYDYESLMHYGPFSFNKNESIPTITTKIPEFNTIIGQLPDFSAIDLIRLNRMYNCTATHTLLDHCDFEKTNVCGMIQGTRDDADWAHGDSSQPEQVDHTLVGQCKGAGYFMFFNTSLGARGEAALLESRILYPKRKQQCLQFFYKMTGSPADRFEVWVRRDDNAGKVRQLAKIQTFQGDSDHNWKIAHVTLNEEKKFRYVFLGTKGDPGNSSGGIYLDDITLTETPCPAGVWTIRNISQILENTVKGDKLVSPRFYNSEGYGVGVTLYPNGRITSNSGFLGLTFHLYSGDNDAILEWPVENRQAIMTILDQEADTRNRMSLTLMFTTSKNQTSSAINGSVIWDRPSKVGVYDKDCDCFRSLDWGWGQAISHQLLKRRNFLKGDSLIIFVDFKDLTHLNRTEVPASARSTMPRGLLLQGQESPALGESSRKAMLEESLPSSLGQRHPSRQKRSVENTGPMEDHNWPQYFRDPCDPNPCQNEGTCVNVKGMASCRCVSGHAFFYAGERCQAM
As to B1, the binding result is given as “binds”.
